# Source: the supplement of paper PMC11438910
# Some of the results follow. The signal is at background level for most entries.
# Columns and labels:
# Test in all cases: fluorescence intensity of antibody binding to polysaccharide-coupled beads; higher = stronger binding
# [1] = biological target: pneumococcal polysaccharide Pn19B
# [2] = biological target: pneumococcal polysaccharide Pn19C
# [3] = biological target: pneumococcal polysaccharide Pn19F
# [4] = biological target: pneumococcal polysaccharide Pn2
# [5] = biological target: pneumococcal polysaccharide Pn20A
# [6] = biological target: pneumococcal polysaccharide Pn20B
# [7] = biological target: pneumococcal polysaccharide Pn21
# [8] = biological target: pneumococcal polysaccharide Pn22A
# [9] = biological target: pneumococcal polysaccharide Pn22F
# [10] = biological target: pneumococcal polysaccharide Pn23A
# [11] = biological target: pneumococcal polysaccharide Pn23B
# [12] = biological target: pneumococcal polysaccharide Pn23F
# [13] = antibody concentration 0.1 ng/mL
# [14] = antibody concentration 0.534724 ng/mL
# [15] = antibody concentration 2.8593 ng/mL
# [16] = antibody concentration 15.2894 ng/mL
# [17] = antibody concentration 81.7561 ng/mL
# [18] = antibody concentration 437.17 ng/mL
# [19] = antibody concentration 2337.65 ng/mL
# [20] = antibody concentration 12500 ng/mL
binder,measurement,setting,value
4-173.2 (protein) chain 1: QLQLQESGPGLVKPSETLSLTCAVSGGSINSNYWSWIRQPPGKGLDWIGRISGSGGSTDYNPSLKSRVTISTDTSKTQFSLKLRSVTAADTAVYYCGRGSYQIDYWGQGILVTVSS chain 2: QAALTQPPSMSGSPGQSVTISCTGTSSDIGGYNRVSWYQQYPGKAPKLMIYEVSKRPSGVSDRFSGSKSGNTASLTISGLQAADEADYYCSSYAGSKALFGGGTRLTVL,fluorescence intensity,[1]; [13],30 MFI
same,fluorescence intensity,[1]; [14],31 MFI
same,fluorescence intensity,[1]; [15],29 MFI
same,fluorescence intensity,[1]; [16],29 MFI
same,fluorescence intensity,[1]; [17],29.5 MFI
same,fluorescence intensity,[1]; [18],30.5 MFI
same,fluorescence intensity,[1]; [19],48 MFI
same,fluorescence intensity,[1]; [20],295 MFI
same,fluorescence intensity,[2]; [13],29 MFI
same,fluorescence intensity,[2]; [14],26.2 MFI
same,fluorescence intensity,[2]; [15],26 MFI
same,fluorescence intensity,[2]; [16],25 MFI
same,fluorescence intensity,[2]; [17],25.8 MFI
same,fluorescence intensity,[2]; [18],25 MFI
same,fluorescence intensity,[2]; [19],41.8 MFI
same,fluorescence intensity,[2]; [20],184 MFI
same,fluorescence intensity,[3]; [13],26 MFI
same,fluorescence intensity,[3]; [14],23.5 MFI
same,fluorescence intensity,[3]; [15],27 MFI
same,fluorescence intensity,[3]; [16],26.5 MFI
same,fluorescence intensity,[3]; [17],25.5 MFI
same,fluorescence intensity,[3]; [18],28.5 MFI
same,fluorescence intensity,[3]; [19],36 MFI
same,fluorescence intensity,[3]; [20],47.8 MFI
same,fluorescence intensity,[4]; [13],19 MFI
same,fluorescence intensity,[4]; [14],20.2 MFI
same,fluorescence intensity,[4]; [15],19.5 MFI
same,fluorescence intensity,[4]; [16],18 MFI
same,fluorescence intensity,[4]; [17],20.5 MFI
same,fluorescence intensity,[4]; [18],20.8 MFI
same,fluorescence intensity,[4]; [19],25.8 MFI
same,fluorescence intensity,[4]; [20],36 MFI
same,fluorescence intensity,[5]; [13],23.5 MFI
same,fluorescence intensity,[5]; [14],23.5 MFI
same,fluorescence intensity,[5]; [15],22 MFI
same,fluorescence intensity,[5]; [16],22 MFI
same,fluorescence intensity,[5]; [17],23.5 MFI
same,fluorescence intensity,[5]; [18],23.8 MFI
same,fluorescence intensity,[5]; [19],38.5 MFI
same,fluorescence intensity,[5]; [20],182 MFI
same,fluorescence intensity,[6]; [13],25 MFI
same,fluorescence intensity,[6]; [14],24 MFI
same,fluorescence intensity,[6]; [15],23 MFI
same,fluorescence intensity,[6]; [16],24 MFI
same,fluorescence intensity,[6]; [17],23.5 MFI
same,fluorescence intensity,[6]; [18],26.2 MFI
same,fluorescence intensity,[6]; [19],27.5 MFI
same,fluorescence intensity,[6]; [20],52.5 MFI
same,fluorescence intensity,[7]; [13],20.5 MFI
same,fluorescence intensity,[7]; [14],18 MFI
same,fluorescence intensity,[7]; [15],19.5 MFI
same,fluorescence intensity,[7]; [16],20.5 MFI
same,fluorescence intensity,[7]; [17],19.8 MFI
same,fluorescence intensity,[7]; [18],20.8 MFI
same,fluorescence intensity,[7]; [19],22.5 MFI
same,fluorescence intensity,[7]; [20],28.5 MFI
same,fluorescence intensity,[8]; [13],22.8 MFI
same,fluorescence intensity,[8]; [14],21.5 MFI
same,fluorescence intensity,[8]; [15],20 MFI
same,fluorescence intensity,[8]; [16],20.5 MFI
same,fluorescence intensity,[8]; [17],21.5 MFI
same,fluorescence intensity,[8]; [18],21.8 MFI
same,fluorescence intensity,[8]; [19],26 MFI
same,fluorescence intensity,[8]; [20],79.5 MFI
same,fluorescence intensity,[9]; [13],31.2 MFI
same,fluorescence intensity,[9]; [14],33 MFI
same,fluorescence intensity,[9]; [15],30.5 MFI
same,fluorescence intensity,[9]; [16],33.8 MFI
same,fluorescence intensity,[9]; [17],31.5 MFI
same,fluorescence intensity,[9]; [18],31.8 MFI
same,fluorescence intensity,[9]; [19],33.5 MFI
same,fluorescence intensity,[9]; [20],44.8 MFI
same,fluorescence intensity,[10]; [13],25.2 MFI
same,fluorescence intensity,[10]; [14],26 MFI
same,fluorescence intensity,[10]; [15],23.8 MFI
same,fluorescence intensity,[10]; [16],24.5 MFI
same,fluorescence intensity,[10]; [17],24.2 MFI
same,fluorescence intensity,[10]; [18],31.5 MFI
same,fluorescence intensity,[10]; [19],45.5 MFI
same,fluorescence intensity,[10]; [20],67 MFI
same,fluorescence intensity,[11]; [13],30 MFI
same,fluorescence intensity,[11]; [14],30 MFI
same,fluorescence intensity,[11]; [15],29.5 MFI
same,fluorescence intensity,[11]; [16],29 MFI
same,fluorescence intensity,[11]; [17],29.8 MFI
same,fluorescence intensity,[11]; [18],31.2 MFI
same,fluorescence intensity,[11]; [19],34.8 MFI
same,fluorescence intensity,[11]; [20],47.5 MFI
same,fluorescence intensity,[12]; [13],19.2 MFI
same,fluorescence intensity,[12]; [14],17.5 MFI
